Assay in all cases: agarose EMSA
(In general: A gel shift assay detects complexes by their altered migration in electrophoresis.)

Chains of the proteins cited; added tags and fusions are not shown. Where a name states a change or a piece, a line headed by the entry shows the natural chain unless it says otherwise. A line that says so, or that is headed by a name, gives the form on record, which may keep a tag or linker.
mouse NF-YA minimal domain + L1L/AtNF-YB6 HFD + AtNF-YC3 HFD, one chain, as listed by the source, chain 3 of 3: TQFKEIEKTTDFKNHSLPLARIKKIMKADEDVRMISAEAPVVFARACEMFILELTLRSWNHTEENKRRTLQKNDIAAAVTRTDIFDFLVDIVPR
mouse NF-YA minimal domain + L1L/AtNF-YB6 HFD + AtNF-YC3 HFD, one chain, as listed by the source, chain 2 of 3: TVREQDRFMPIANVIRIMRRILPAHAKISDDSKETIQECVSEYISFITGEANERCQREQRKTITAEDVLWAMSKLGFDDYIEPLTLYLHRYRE
mouse NF-YA minimal domain + L1L/AtNF-YB6 HFD + AtNF-YC3 HFD, one chain, as listed by the source, chain 1 of 3: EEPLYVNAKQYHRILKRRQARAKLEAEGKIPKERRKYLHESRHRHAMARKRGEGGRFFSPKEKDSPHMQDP

Data set [1] deals with T1, LEC1/AtNF-YB9 HFD (Arabidopsis thaliana) (UniProt Q9SFD8).
T1 sequence (looked up): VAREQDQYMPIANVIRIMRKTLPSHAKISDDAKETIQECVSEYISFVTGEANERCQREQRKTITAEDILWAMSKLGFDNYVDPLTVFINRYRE
As to conditions: AtNF-YB9 alone, 32P EMSA: 20 mM Hepes pH 7.9, 50 mM NaCl, 5% glycerol, 5 mM MgCl2, 5 mM b-ME, 20 C, Cy5 agarose EMSA: 20 nM DNA, 20 mM Tris pH 7.5, 50 mM NaCl, 0.5 mM EDTA, recombinant protein, residues 56-148, protein details: N-terminal 6His, label: 5'-Cy5.

For data set [2], the system named is mouse NF-YA minimal domain + L1L/AtNF-YB6 HFD + AtNF-YC3 HFD. Particulars: shifted, lower affinity than mouse NF-Y, 32P EMSA: 20 mM Hepes pH 7.9, 50 mM NaCl, 5% glycerol, 5 mM MgCl2, 5 mM b-ME, 20 C, Cy5 agarose EMSA: 20 nM DNA, 20 mM Tris pH 7.5, 50 mM NaCl, 0.5 mM EDTA, recombinant protein, label: 5'-Cy5.
For data set [3], the system named is mouse NF-YA minimal domain + LEC1/AtNF-YB9 HFD + AtNF-YC3 HFD. Particulars: shifted, lower affinity than mouse NF-Y, 32P EMSA: 20 mM Hepes pH 7.9, 50 mM NaCl, 5% glycerol, 5 mM MgCl2, 5 mM b-ME, 20 C, Cy5 agarose EMSA: 20 nM DNA, 20 mM Tris pH 7.5, 50 mM NaCl, 0.5 mM EDTA, recombinant protein, label: 5'-Cy5.

For part of these data: Negatives hold for the conditions tested. For part of these data: Where a protein sequence is shown, tags need not be part of it. For part of these data: Weaker means in comparison with the reference protein, sequence or condition of that experiment.

As to “CTTCTGAGCCAATCACCGAGCTCGATGAGGC (double strand) [HSP70 CCAAT 31 bp probe]”, the results for the binding result in data set [1], in data set [2] and in data set [3] were “no binding”, “binds more weakly” and “binds more weakly”, respectively.

The values are drawn from PMC3422339.
